# Test results taken from PubChem BioAssay AID651768 (National Center for Advancing Translational Sciences (NCATS), 2012).
# Amino acid sequences for entries named in this document (tags omitted).
# UniProt Q14191, whole entry, looked up: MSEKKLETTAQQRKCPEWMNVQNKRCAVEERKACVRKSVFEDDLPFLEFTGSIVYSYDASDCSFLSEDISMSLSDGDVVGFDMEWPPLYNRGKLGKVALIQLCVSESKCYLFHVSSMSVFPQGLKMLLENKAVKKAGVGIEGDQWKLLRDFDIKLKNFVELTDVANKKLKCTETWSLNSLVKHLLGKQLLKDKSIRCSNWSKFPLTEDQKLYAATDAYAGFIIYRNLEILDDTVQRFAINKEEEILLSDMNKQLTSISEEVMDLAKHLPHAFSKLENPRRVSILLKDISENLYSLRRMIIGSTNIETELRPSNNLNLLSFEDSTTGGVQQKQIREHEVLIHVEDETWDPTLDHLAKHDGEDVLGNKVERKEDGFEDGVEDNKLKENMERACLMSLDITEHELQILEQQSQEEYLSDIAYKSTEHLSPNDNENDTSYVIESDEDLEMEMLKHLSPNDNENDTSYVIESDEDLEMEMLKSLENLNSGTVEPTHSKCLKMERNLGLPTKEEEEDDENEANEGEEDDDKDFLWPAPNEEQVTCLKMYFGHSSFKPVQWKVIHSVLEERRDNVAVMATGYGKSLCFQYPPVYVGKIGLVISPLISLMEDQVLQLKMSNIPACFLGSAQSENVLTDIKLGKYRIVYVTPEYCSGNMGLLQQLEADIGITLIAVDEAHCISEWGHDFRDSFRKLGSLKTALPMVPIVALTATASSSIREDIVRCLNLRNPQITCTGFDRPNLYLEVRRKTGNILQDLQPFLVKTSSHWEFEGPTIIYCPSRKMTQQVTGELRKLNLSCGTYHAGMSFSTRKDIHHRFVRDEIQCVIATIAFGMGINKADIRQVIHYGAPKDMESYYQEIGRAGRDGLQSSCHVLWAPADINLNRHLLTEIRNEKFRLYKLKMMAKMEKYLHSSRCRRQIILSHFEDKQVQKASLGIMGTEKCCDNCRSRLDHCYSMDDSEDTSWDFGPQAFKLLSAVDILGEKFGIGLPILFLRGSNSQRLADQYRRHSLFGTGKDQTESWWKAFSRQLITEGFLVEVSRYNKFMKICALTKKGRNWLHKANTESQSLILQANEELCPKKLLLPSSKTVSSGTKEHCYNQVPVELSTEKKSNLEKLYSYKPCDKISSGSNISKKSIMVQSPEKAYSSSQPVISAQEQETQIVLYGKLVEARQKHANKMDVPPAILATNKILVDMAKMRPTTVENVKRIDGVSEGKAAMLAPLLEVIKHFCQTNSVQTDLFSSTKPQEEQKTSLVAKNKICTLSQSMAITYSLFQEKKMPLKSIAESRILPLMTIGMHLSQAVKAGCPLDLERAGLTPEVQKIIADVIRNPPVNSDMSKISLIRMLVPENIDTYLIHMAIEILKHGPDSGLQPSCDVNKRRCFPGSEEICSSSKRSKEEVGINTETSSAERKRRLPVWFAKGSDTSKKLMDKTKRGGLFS
# About 1,700 (0.47%) of roughly 360,000 compounds were called active. This list was built around the results that the source calls inconclusive (neither active nor inactive); the mix of calls is not that of the screen. The call rests on the fitted dose curve; in most records, active means well fitted inhibition curve with a large enough effect; inconclusive means small, poorly fitted or top-dose-only effect; inactive means no such curve, though single readings can be large or run the other way. Where the call is inconclusive, the potency comes from a doubtful curve fit.
# Target: Bifunctional 3'-5' exonuclease/ATP-dependent helicase WRN (Homo sapiens) (UniProt Q14191)
# Assay: qHTS for Inhibitors of WRN Helicase; further: nearly all actives have a fitted effect of over 55% in size
# Details: WRN helicase unwinding, fluorescent forked duplex, kinetic; activity change, negative = inhibition: at 114 µM (top of the series) unless noted
# How it was run: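 Primary qHTS, 1536-well format. 20 nM WRN + compound, 15 min RT; start with 100 nM forked fluorophore/quencher duplex, 2 mM ATP (final); kinetic read ex 525/em 598 nm.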
# On the % scale 0 is the no-effect control and ±100 the full control effect; potency means the concentration at half of the fitted maximal effect.
SMILES,Potency,"activity change, negative = inhibition"
Cc1ccc(C)c(S(=O)(=O)N2CCN(c3ncnc4sccc34)CC2)c1,"inconclusive: 50.1 µM [inhibitor, partial curve, poor fit]",–
CCCC(c1c(C)n(C)n(-c2ccccc2)c1=O)c1c(C)n(C)n(-c2ccccc2)c1=O,inactive,–
O=C(O)c1ccccc1C(=O)Nc1ccc(S(=O)(=O)Nc2nccs2)cc1,inactive,–
Cc1cc(NC(=O)CSc2nc3c(c(-c4cccnc4)c2C#N)CCC3)no1,"inconclusive: 44.7 µM [inhibitor, partial curve]",–
O=c1oc(-c2ccc(O)c(O)c2)cc2cccc(O)c12,"inconclusive: 35.5 µM [inhibitor, partial curve]",–
COC(=O)c1ccc(CSc2ccccc2NC(=S)Nc2cccc(C(F)(F)F)c2)o1,inactive,–
CS(=O)(=O)c1cc([N+](=O)[O-])c(Sc2nc3ccccc3[nH]2)c([N+](=O)[O-])c1,active: 56.2 µM,–
O=c1c2c3nc4ccccc4nc3n(Cc3ccccc3)c2ncn1Cc1ccco1,"inconclusive: 79.4 µM [inhibitor, partial curve]",–
C/C(=N\N1CCN(Cc2ccc(C)cc2)CC1)c1ccco1,"inconclusive: 12.6 µM [inhibitor, partial curve]",–
CC(/C=C1\SC(=S)N(C(C(=O)O)C(C)C)C1=O)=C\c1ccccc1 (stereo unspecified),inactive,–
COC(=O)c1cc2c(-c3ccccc3)cc3ccccn3c-2c1C(=O)OC,"inconclusive: 79.4 µM [inhibitor, partial curve]",–
Cc1ccc2sc(C)[n+](CCCS(=O)(=O)[O-])c2c1,"inconclusive: 20 µM [inhibitor, single point]",–
CC1CCCN(CCC(=O)c2ccc(Br)cc2)C1 (stereo unspecified),–,inconclusive: -54.1% [inhibitor] [at 57.1 µM]
Cc1cccc(OCC(=O)Nc2ccc(S(=O)(=O)N3CCCC3)cc2)c1,"inconclusive: 50.1 µM [inhibitor, partial curve, poor fit]",–
Cc1cc(O)c(C=O)c2c1C(=O)Oc1c(CO)c(O)c3c(c1O2)C(O)OC3=O (stereo unspecified),active: 3.55 µM,–
OCCN(CCO)c1nc(N2CCCCC2)c2nc(N(CCO)CCO)nc(N3CCCCC3)c2n1,inactive,–
COc1ccc(Cl)cc1NC(=O)CC(C)=O,inactive,–
CNC(=O)/C(C#N)=C/c1ccc(-c2ccccc2[N+](=O)[O-])o1,"inconclusive: 79.4 µM [inhibitor, single point]",–
O=C(O)c1ccccc1-c1ccc(/C=C2\SC(=O)N(c3ccccc3)C2=O)o1,–,inactive: -5.73% [at 11.6 µM]
O=C(N/C=C/c1ccco1)NCc1ccccc1,"inconclusive: 70.8 µM [inhibitor, single point]",–
COc1ccccc1NC(=O)Nc1nc2ccc(S(N)(=O)=O)cc2s1,"inconclusive: 14.1 µM [inhibitor, partial curve, poor fit]",–
Cc1ccc(S(=O)(=O)N(Cc2ccccc2)Cc2ccco2)cc1,inactive,–
c1nc(SSc2ncnc3nc[nH]c23)c2[nH]cnc2n1,active: 39.8 µM,–
O=C(OCc1ccc(F)cc1)c1cccnc1Cl,inactive,–

SMILES,Potency,"activity change, negative = inhibition"
CC1=Nc2ccccc2/C1=C/c1sc(=N)n(-c2nccs2)c1O,"inconclusive: 44.7 µM [inhibitor, partial curve]",–
COC(=O)/C=C\C(C#N)(C#N)N=Cc1ccc(OC)cc1,active: 56.2 µM,–
CCc1nc2c(OCc3cc(Cl)cc(Cl)c3)cccn2c1N(C=O)Cc1ccc(OC)cc1,inactive,–
Nc1ccc(N)c(C(=O)O)c1,active: 31.6 µM,–
Cc1ccccc1NC(=O)CSc1ccsc1[N+](=O)[O-],active: 50.1 µM,–
Cc1ccc(S(=O)(=O)CCC(=O)Nc2cccc(C)c2)cc1,inactive,–
CCS(=O)(=O)C1=NSC2=NC(=O)/C(=C\c3ccc(OC(=O)c4ccco4)cc3)C(=N)N21,inactive,–
Cc1cccc(-n2c(C)c(-c3ccccc3)[nH]c2=S)c1,"inconclusive: 79.4 µM [inhibitor, partial curve]",–
CCOCc1c(C(=O)Nc2ccc3nc(N4CCOCC4)sc3c2)oc2ccccc12,"inconclusive: 17.8 µM [inhibitor, full curve]",–
Cc1ccc(Nc2n[nH]c(=S)s2)cc1F,"inconclusive: 12.6 µM [inhibitor, full curve, poor fit]",–
Cc1ccccc1Oc1cc(-n2ncc(Cl)c(Cl)c2=O)ncn1,"inconclusive: 39.8 µM [inhibitor, partial curve]",–
COc1cccc(C(=O)OCC(=O)Nc2sc3c(c2C(N)=O)CCC3)c1O,"inconclusive: 50.1 µM [inhibitor, partial curve]",–
CC(C)C(=O)Nc1cccc(COc2ccc(CN(Cc3ccccc3)C(=O)OC(C)(C)C)cc2)c1,inactive,–
COc1cc(/C=C2\SC(=Nc3ccccc3)N(CCc3c[nH]c4ccccc34)C2=O)ccc1OC(C)C(=O)O (stereo unspecified),"inconclusive: 14.1 µM [inhibitor, partial curve]",–
O=C(Cn1sc2ccccc2c1=O)NC12CC3CC(CC(C3)C1)C2,active: 39.8 µM,–
CCOc1ccc(NC(=O)CN2CCN(c3ccccc3C)CC2)cc1S(=O)(=O)N1CCCC1,"inconclusive: 25.1 µM [inhibitor, single point]",–
O=c1cc(-c2ccc(O)cc2)oc2c(O)c(O)c(O)c(O)c12,active: 7.08 µM,–
O=C(CC1SC(=O)N(c2ccccc2)C1=O)Nc1ccc(Br)cc1 (stereo unspecified),"inconclusive: 28.2 µM [inhibitor, partial curve]",–
Cc1cccc(C)c1NC(=O)CN(C)C(=O)c1cccc(S(=O)(=O)N2CCN(c3ccccc3)CC2)c1,"inconclusive: 79.4 µM [inhibitor, single point]",–
Cc1cccc(/C(N)=N/OC(=O)c2cccs2)c1,inactive,–
O=C(ONC1=NCCCCC1)c1cccc([N+](=O)[O-])c1,inactive,–
O=C(CSc1nc2ccc(Cl)cc2[nH]1)N1CCN(C(=O)c2ccco2)CC1,"inconclusive: 39.8 µM [inhibitor, partial curve]",–
Cc1oc(C(=O)O)cc1COc1cccc2cccnc12,"inconclusive: 50.1 µM [inhibitor, partial curve]",–
Cc1ccc(N=Nc2ccc3ccccc3c2O)cc1,"inconclusive: 12.6 µM [inhibitor, partial curve]",–

SMILES,Potency,"activity change, negative = inhibition"
COc1ccc(/C=N/NC(=O)c2ccc(Cl)cc2)cc1Cn1cc(Cl)cn1,inactive,–
CCCCCCOC1(c2ccccc2)OC(=O)c2ccccc21 (stereo unspecified),inactive,–
COc1ccc(N2CCN(c3nc(C)c(C)c(=O)[nH]3)CC2)cc1,"inconclusive: 100 µM [inhibitor, single point]",–
O=C1C(Cl)=C(NS(=O)(=O)c2ccc([N+](=O)[O-])cc2)C(=O)c2ccccc21,active: 79.4 µM,–
Cc1cc(C(=O)N/N=C/c2ccc(-c3ccc(C)c(Cl)c3)o2)n[nH]1,"inconclusive: 3.55 µM [inhibitor, full curve, poor fit]",–
O=C(Nc1nnc(SCc2ccccn2)s1)C1CC(=O)N(c2ccc(F)cc2)C1 (stereo unspecified),"inconclusive: 20 µM [inhibitor, full curve]",–
Cc1nc(/N=C(\N)NC(=O)c2ccccc2)nc2ccccc12,inactive,–
CN(C)S(=O)(=O)c1cccc(C(=O)NC(=S)N(CCC#N)Cc2cccnc2)c1,inactive,–
CC(=O)Nc1cccc(C(=O)N/N=C/c2cccc(C)n2)c1,"inconclusive: 89.1 µM [inhibitor, single point]",–
Cc1cccc(NC(=O)CN2C(=O)N/C(=C\c3ccc(-c4cccc(C(=O)O)c4)o3)C2=O)c1,"inconclusive: 70.8 µM [inhibitor, single point]",–
CN(c1ccccc1C(=O)O)S(=O)(=O)c1ccc2c3c(cccc13)C(=O)N2,"inconclusive: 44.7 µM [inhibitor, partial curve]",–
COc1ccc2nc(N3CCCCC3)c(/C=C3\SC(=S)NC3=O)cc2c1,"inconclusive: 56.2 µM [inhibitor, partial curve]",–
O=C(N/N=C/c1ccc(N2CCCCC2)o1)c1ccccc1,"inconclusive: 63.1 µM [inhibitor, partial curve]",–
COc1cc(/C=N/NC(=O)c2sc(N)c(C#N)c2C)ccc1O,"inconclusive: 10 µM [inhibitor, full curve]",–
COc1ccc(C(=O)NCCc2nnc3ccc(SCC(=O)Nc4ccccc4)nn23)cc1,"inconclusive: 89.1 µM [inhibitor, single point]",–
COc1cc(/C=N/N(c2ccccc2)c2ccccc2)ccc1O,"inconclusive: 100 µM [inhibitor, single point]",–
NC(=O)c1ccsc1NC(=O)COC(=O)c1cc(=O)[nH]c2ccccc12,"inconclusive: 63.1 µM [inhibitor, partial curve, poor fit]",–
S=C(NCCc1ccccc1)Nc1ccc(Nc2ccccc2)cc1,"inconclusive: 31.6 µM [inhibitor, single point]",–
O=C(CSc1nncn1-c1ccccc1)Nc1ccc(N2CCOCC2)cc1,"inconclusive: 89.1 µM [inhibitor, single point]",–
CNc1oc(Cc2ccccc2)nc1S(=O)(=O)c1ccccc1,"inconclusive: 79.4 µM [inhibitor, partial curve]",–
COc1ccc(S(=O)(=O)c2c(N)n(Cc3ccco3)c3nc4ccccc4nc23)cc1,active: 35.5 µM,–
CN1/C(=C\C(=O)COC(=O)Cn2nnc(-c3ccccc3)n2)C(C)(C)c2ccccc21,active: 50.1 µM,–
CCOc1ccc(CN2CCNC(=O)C2CC(=O)NC2CCOCC2)cc1 (stereo unspecified),"inconclusive: 89.1 µM [inhibitor, single point]",–

# Some of these compounds in order of length of the SMILES, ascending:
SMILES,Potency,"activity change, negative = inhibition"
CCOc1ccc(CN2CCNC(=O)C2CC(=O)NC2CCOCC2)cc1 (stereo unspecified),"inconclusive: 89.1 µM [inhibitor, single point]",–
O=C(CSc1nncn1-c1ccccc1)Nc1ccc(N2CCOCC2)cc1,"inconclusive: 89.1 µM [inhibitor, single point]",–
Cc1cc(C(=O)N/N=C/c2ccc(-c3ccc(C)c(Cl)c3)o2)n[nH]1,"inconclusive: 3.55 µM [inhibitor, full curve, poor fit]",–
CN(C)S(=O)(=O)c1cccc(C(=O)NC(=S)N(CCC#N)Cc2cccnc2)c1,inactive,–
